Measurements as given in PMC10441986.

T1: ornithine decarboxylase 1 (ODC1) of Recilia dorsalis, yeast two-hybrid fusion (Recilia dorsalis)
T1 sequence: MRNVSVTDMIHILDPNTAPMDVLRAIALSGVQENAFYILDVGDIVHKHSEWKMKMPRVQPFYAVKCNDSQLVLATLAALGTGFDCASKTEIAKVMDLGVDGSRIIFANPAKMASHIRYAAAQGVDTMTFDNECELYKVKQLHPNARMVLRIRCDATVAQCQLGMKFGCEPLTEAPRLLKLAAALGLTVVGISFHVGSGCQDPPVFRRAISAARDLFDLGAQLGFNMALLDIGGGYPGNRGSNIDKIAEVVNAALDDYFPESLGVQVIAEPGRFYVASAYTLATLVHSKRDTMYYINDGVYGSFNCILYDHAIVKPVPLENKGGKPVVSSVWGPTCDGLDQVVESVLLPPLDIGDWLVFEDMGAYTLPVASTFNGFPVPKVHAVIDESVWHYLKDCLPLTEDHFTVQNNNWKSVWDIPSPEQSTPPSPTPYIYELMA

T2: ornithine decarboxylase antizyme 1 (OAZ1) of Recilia dorsalis, yeast two-hybrid fusion (Recilia dorsalis)
T2 sequence: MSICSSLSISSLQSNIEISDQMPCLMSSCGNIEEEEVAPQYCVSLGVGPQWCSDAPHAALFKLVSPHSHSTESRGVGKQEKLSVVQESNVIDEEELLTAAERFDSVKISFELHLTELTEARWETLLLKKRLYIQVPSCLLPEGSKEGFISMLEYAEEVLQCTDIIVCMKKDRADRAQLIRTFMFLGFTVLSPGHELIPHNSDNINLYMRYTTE

B1: His-OAZ1 (OAZ1 of Recilia dorsalis fused with His) (protein, UniProt A0A8K1BCU6 1-213)
chain: T2 sequence
B2: endogenous OAZ1 of Recilia dorsalis (protein, UniProt A0A8K1BCU6 1-213)
chain: T2 sequence
B3: ornithine decarboxylase 1 (ODC1) of Recilia dorsalis, yeast two-hybrid fusion (enzyme, UniProt A0A8K1F0V5 1-436)
chain: T1 sequence

Tests used:
[1] = target: T1, ornithine decarboxylase 1 (ODC1) of Recilia dorsalis, yeast two-hybrid fusion (Recilia dorsalis); assay: two-hybrid; Matchmaker Gal4 Two-Hybrid System3 (Clontech), bait plasmid pGBKT7 and prey plasmid pGADT7, yeast strain AH109; growth on DDO and QDO + X-alpha-gal plates, also serially diluted 10^-1 to 10^-4
[2] = target: T2, ornithine decarboxylase antizyme 1 (OAZ1) of Recilia dorsalis, yeast two-hybrid fusion (Recilia dorsalis); assay: as above
[3] = target: GST-M (RSMV matrix protein fused with GST) (rice stripe mosaic virus); assay: pull-down; GST-fused proteins on glutathione-Sepharose beads 4 h at 4 °C, His-fused proteins then added 2 h at 4 °C; western blot with antibodies against GST and His
[4] = target: RSMV matrix protein (M) in viruliferous Recilia dorsalis (rice stripe mosaic virus); assay: co-IP; RSMV-M-specific IgG on Protein A affinity beads; lysates of 30 viruliferous or nonviruliferous R. dorsalis adults, 2 h at 4 °C; blot with OAZ1- and beta-actin-specific IgG
[5] = target: C-terminal ODC-AZ domain of OAZ1 of Recilia dorsalis, yeast two-hybrid fusion (Recilia dorsalis); assay: two-hybrid; Matchmaker Gal4 Two-Hybrid System3 (Clontech), bait plasmid pGBKT7 and prey plasmid pGADT7, yeast strain AH109; growth on DDO and QDO + X-alpha-gal plates, also serially diluted 10^-1 to 10^-4

| Molecule | binding [1] | binding [2] | also measured |
| --- | --- | --- | --- |
| glycoprotein (G) of rice stripe mosaic virus, yeast two-hybrid fusion | no binding | no binding | – |
| P6 protein of rice stripe mosaic virus, yeast two-hybrid fusion | no binding | no binding | – |
| P3 protein of rice stripe mosaic virus, yeast two-hybrid fusion | no binding | no binding | – |
| phosphoprotein (P) of rice stripe mosaic virus, yeast two-hybrid fusion | no binding | no binding | – |
| matrix protein (M) of rice stripe mosaic virus (RSMV), yeast two-hybrid fusion | no binding | binds | – |
| nucleoprotein (N) of rice stripe mosaic virus, yeast two-hybrid fusion | no binding | no binding | – |
| B1 | – | – | binding [3]: binds |
| B2 | – | – | binding [4]: binds |
| B3 | – | – | binding [5]: binds |

No constants are given. Whether binding was seen depends on the method and setting. For part of these data: Binding calls can cover weak binding; strength is not graded here. For part of these data: Sequences can lack the tags named with a protein. For part of these data: Binding seen in cells or lysates may run through a third protein.
